Results taken from the supplement of paper PMC8104966.
Some of the results follow. Single values are uncertain here, since repeats match poorly.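 U2OS cells carrying ACE2 were mixed with U2OS cells carrying full-length spike, and fusion was scored by imaging as the share of nuclei showing both cell types' fluorescent markers. A compound counts as an inhibitory hit when it is non-toxic and its fusion z-score falls below -3, meaning more than three standard deviations below the plate's DMSO wells.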

What follows are compounds tested on U2OS ACE2 x SARS-CoV-2 spike co-culture (assay: cell-cell fusion (fraction fused) z-score vs plate DMSO control; higher = more fusion). Details: 30 µM; 5 h; toxicity class: non-toxic, passed QC.

SMILES | cell-cell fusion (z-score)
COc1ccc([C@@H]2CC(=O)c3c(O)cc(O)cc3O2)cc1O | inactive: 1.98
COc1ccnc(CS(=O)c2nc3cc(OC(F)F)ccc3[n-]2)c1OC.[Na+] (stereo unspecified) [Pantoprazole sodium] | inactive: 1.76
CC1(C)S[C@@H]2[C@H](NC(=O)Cc3ccccc3)C(=O)N2[C@H]1C(=O)[O-].[K+] | inactive: 0.297
CO/N=C(/C(=O)N[C@@H]1C(=O)N2C(C(=O)[O-])=C(COC(C)=O)CS[C@H]12)c1csc(N)n1.[Na+] | inactive: 1.13
Cc1nnc(S)nc1O | inactive: 1.31
CCOC(=O)[C@H](CCc1ccccc1)N[C@@H](C)C(=O)N1[C@H](C(=O)O)C[C@H]2CCCC[C@@H]21 [Trandolapril] | inactive: 1.1
CC(=O)O[C@]1(C(C)=O)CCC2C3C=C(C)C4=CC(=O)CCC4(C)C3CCC21C (stereo partly specified) | inactive: 0.172
COc1cc2c3cc1Oc1c(OC)c(OC)cc4c1[C@@H](Cc1cccc(c1)Oc1ccc(c(O)c1)C[C@@H]3N(C)CC2)N(C)CC4.Cl.Cl | inactive: 1.54
CN1CCN(c2ccc3nc(-c4c(N)c5c(F)cccc5[nH]c4=O)[nH]c3c2)CC1 [Dovitinib (TKI-258)] | inactive: 1.51
CCC1(c2ccccc2)C(=O)NCNC1=O [Primidone] | active: -4.48
CCC1(c2ccccc2)C(=O)NCNC1=O | inactive: 1.53
Br.CCCN(CCC)C1CCc2cccc(O)c2C1 (racemic) [(±)-8-Hydroxy-DPAT hydrobromide] | inactive: 1.76
O.OC[C@@H](O)C(O[C@@H]1O[C@H](CO)[C@H](O)[C@H](O)[C@H]1O)[C@H](O)[C@@H](O)CO (stereo partly specified) | inactive: 1.26
CC(C)[N+](C)(CCC(C(N)=O)(c1ccccc1)c1ccccc1)C(C)C.[I-] | inactive: 0.637
Cc1cc(O)cc(=O)o1 | inactive: 1.6
CC[C@H](NC(=O)c1c(C)c(-c2ccccc2)nc2ccccc12)c1ccccc1 | inactive: 1.35
COc1ccc2c(c1)CCC1C2CC[C@@]2(C)C1CC[C@@H]2O (stereo partly specified) | inactive: 0.579
C[N+]1(C)[C@@H]2CC[C@H]1C[C@@H](OC(=O)C(O)c1ccccc1)C2.[Br-] (stereo partly specified) [Homatropine Methylbromide] | inactive: 2.01
C[C@@H](O)[C@H](N)C(=O)O [threonine] | inactive: -0.533
C[C@@H](O)[C@H](N)C(=O)O | inactive: 1.42
CC(Cc1ccc(OCC(=O)[O][Na])cc1)NCC(O)c1cccc(Cl)c1 (stereo unspecified) | inactive: 0.383

An excerpt of these results, tab-delimited.
SMILES	cell-cell fusion (z-score)
CC1(C)S[C@@H]2[C@H](NC(=O)Cc3ccccc3)C(=O)N2[C@H]1C(=O)[O-].[K+]	inactive: 0.297
CN1CCN(c2ccc3nc(-c4c(N)c5c(F)cccc5[nH]c4=O)[nH]c3c2)CC1 [Dovitinib (TKI-258)]	inactive: 1.51
